According to PMC4225516:
These are yes or no findings as the source states them, for the method shown. In cells and extracts the contact can be indirect. Some binding calls cover weakened binding; strength is not graded here. Values belong to the molecule of their own block, whether it stands above or below them.

Chains of the proteins cited; added tags and fusions are not shown. Residues count along the entry.
UniProt P14211, residues 18-416: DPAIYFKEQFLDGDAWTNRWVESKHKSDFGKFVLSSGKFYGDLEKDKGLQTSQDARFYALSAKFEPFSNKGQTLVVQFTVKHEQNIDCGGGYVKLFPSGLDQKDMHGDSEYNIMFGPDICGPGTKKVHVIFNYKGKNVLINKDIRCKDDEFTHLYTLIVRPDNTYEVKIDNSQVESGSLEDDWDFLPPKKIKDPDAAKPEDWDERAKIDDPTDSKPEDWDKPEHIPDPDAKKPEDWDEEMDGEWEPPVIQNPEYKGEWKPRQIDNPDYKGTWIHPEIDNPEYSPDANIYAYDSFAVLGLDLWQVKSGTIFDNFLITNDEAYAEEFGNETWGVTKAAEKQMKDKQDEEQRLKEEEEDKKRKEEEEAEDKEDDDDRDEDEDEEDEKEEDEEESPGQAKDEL

Assays:
[1] = target: T1, mouse acrosome and sperm tail protein (MAST) (mouse (endogenous in testis)) (UniProt Q7TPM5); assay: co-IP; antibody cross-linked (DSS) to protein A/G plus agarose (Pierce cross link IP kit); pre-cleared mouse testis lysate, 1-2 h or overnight at 4°C; eluate probed by western blot
T1 sequence: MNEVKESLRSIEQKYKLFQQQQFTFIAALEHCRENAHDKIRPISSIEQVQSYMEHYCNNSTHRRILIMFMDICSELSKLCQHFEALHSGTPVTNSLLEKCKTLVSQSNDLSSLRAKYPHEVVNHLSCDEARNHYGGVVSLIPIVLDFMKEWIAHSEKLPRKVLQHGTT

[2] = target: calreticulin (mouse (endogenous in testis)) (UniProt P14211); assay: as above

binding [1]: binds
Molecule: calreticulin (from UniProt P14211 18-416)

binding [2]: binds
B1: mouse acrosome and sperm tail protein (MAST) (protein, UniProt Q7TPM5 1-168)
chain: T1 sequence
